The record followed here is PubChem BioAssay AID256 (DTP/NCI, 2004).

The list is a part of this screen's results and no random one: it is rich in T/C values a quarter to a half above the control, in often repeated tests (any T/C) and in doses without a T/C. Further doses and runs are listed elsewhere. T/C gives the treated animals as a percentage of the vehicle group. Some entries give survivors of the animals treated and no T/C: the source holds a T/C of zero for them, seemingly a mark for toxic or unscored doses. Some survivor counts are full or nearly so, which does not show that the dose was tolerated: the source hardly ever lists a survival T/C far under the control, and the zero likely stands for such cases as well. Survivors were counted at the toxicity check, usually on the fifth day, unless a day is given; later deaths do not show. Schedules are NCI's codes, taken here to give the interval after Q, in days (D) or hours (H), and the number of doses after X. Some doses were run more than once; the values are given in rising order. Where survival is the endpoint, this PubChem deposit counts one and a half times the control or more as active, and values a quarter to a half above the control carry no call in these data; other NCI protocols may use other cut-offs. Counts like (3×) stand for listed records that agree. Some T/C values carry the count of animals alive at the toxicity check (mostly the fifth day); where none is given, no animal had died by that day.

This assay relates to CD2F1 mice, L1210 leukemia ip, survival T/C. As to the kind of experiment: NCI In Vivo Anticancer Drug Screen. Data for tumor model L1210 Leukemia (intraperitoneal) in CD2F1 (CDF1) mice. Particulars: higher T/C = longer survival. In outline:
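Tumor-bearing mice (transplanted tumor) were split into treated and vehicle control groups, and the measured endpoint of each treated group was divided by that of its vehicle controls.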

[1] abbreviates: T/C endpoint: mean survival time, dose: 100.0 mg/kg/injection, schedule: Q04DX003 (ip), vehicle: saline.
[2] abbreviates: T/C endpoint: mean survival time, dose: 100.0 mg/kg/injection, schedule: Q04DX002 (ip), vehicle: saline with Tween-80.
Where [3] appears, read: T/C endpoint: mean survival time, dose: 100.0 mg/kg/injection, schedule: Q04DX003 (ip), vehicle: saline with Tween-80.
The mark [4] stands for this setting: T/C endpoint: mean survival time, dose: 200.0 mg/kg/injection, schedule: Q04DX003 (ip), vehicle: saline with Tween-80.
[5] abbreviates: T/C endpoint: mean survival time, dose: 400.0 mg/kg/injection, schedule: Q04DX003 (ip), vehicle: saline with Tween-80.
[6] abbreviates: T/C endpoint: mean survival time, dose: 100.0 mg/kg/injection, schedule: Q01DX001 (ip), vehicle: saline with Tween-80.
The mark [7] stands for this setting: T/C endpoint: mean survival time, dose: 200.0 mg/kg/injection, schedule: Q01DX001 (ip), vehicle: saline with Tween-80.
The mark [8] stands for this setting: T/C endpoint: mean survival time, dose: 400.0 mg/kg/injection, schedule: Q01DX001 (ip), vehicle: saline with Tween-80.
Setting [9] is: T/C endpoint: mean survival time, dose: 400.0 mg/kg/injection, schedule: Q04DX002 (ip), vehicle: saline with Tween-80.
The mark [10] stands for this setting: T/C endpoint: mean survival time, dose: 150.0 mg/kg/injection, schedule: Q01DX001 (ip), vehicle: saline.
The mark [11] stands for this setting: T/C endpoint: mean survival time, dose: 300.0 mg/kg/injection, schedule: Q01DX001 (ip), vehicle: saline.
[12] abbreviates: T/C endpoint: mean survival time, dose: 200.0 mg/kg/injection, schedule: Q04DX002 (ip), vehicle: saline with Tween-80.
Where [13] appears, read: T/C endpoint: mean survival time, dose: 200.0 mg/kg/injection, schedule: Q01DX009 (ip), vehicle: saline with Tween-80.
[14] abbreviates: T/C endpoint: mean survival time, dose: 100.0 mg/kg/injection, schedule: Q01DX009 (ip), vehicle: saline with Tween-80.
Where [15] appears, read: T/C endpoint: mean survival time, dose: 400.0 mg/kg/injection, schedule: Q04DX003 (ip), vehicle: saline.
Where [16] appears, read: T/C endpoint: mean survival time, dose: 12.5 mg/kg/injection, schedule: Q01DX009 (ip), vehicle: saline with Tween-80.
Setting [17] is: T/C endpoint: mean survival time, dose: 25.0 mg/kg/injection, schedule: Q01DX009 (ip), vehicle: saline with Tween-80.

Regarding `CC(=O)OCC1OC(OC(C)=O)C(On2nnc3c(-c4ccccc4)c(C)nn32)C(OC(C)=O)C1OC(C)=O` (stereo not drawn), the survivor count (T/C endpoint: median survival time, dose: 200.0 mg/kg/injection, schedule: Q01DX005 (ip), vehicle: Klucel (hydroxypropylcellulose) (HPC)) is given as 0 of 6.
For the molecule `O=[N+]([O-])c1ccc(N/N=C/c2ccc(CO)cc2)c([N+](=O)[O-])c1`, under setting [1], the survivor count is recorded as 6 of 6.
In the case of `c1ccc([P+](Cc2ccc3ccccc3n2)(c2ccccc2)c2ccccc2)cc1`, the survivor count (T/C endpoint: mean survival time, dose: 25.0 mg/kg/injection, schedule: Q01DX009 (ip), vehicle: saline) is listed as 1 of 3.
With `N#CSCCN1C(=O)C2C3CCC(O3)C2C1=O` (stereo not drawn), the survivor count is recorded as 0 of 3 (T/C endpoint: mean survival time, dose: 50.0 mg/kg/injection, schedule: Q04DX002 (ip), vehicle: saline with Tween-80) and 0 of 3 under setting [2].
For `Cc1cc(=O)oc2cc(OC(=O)C(CCCCN)NC(=O)OCc3ccccc3)ccc12` (stereo not drawn), the survivor count (T/C endpoint: mean survival time, dose: 200.0 mg/kg/injection, schedule: Q01DX009 (ip), vehicle: other) is recorded as 2 of 6.
Turning to `S=c1nc(-c2ccccc2)c(-c2ccccc2)n[nH]1`, for the setting “T/C endpoint: mean survival time, dose: 300.0 mg/kg/injection, schedule: Q01DX009 (ip), vehicle: saline”, the survivor count is 6 of 6.
As for `O=C1CCCN1C1CC2c3ccccc3C1c1cccc[n+]12` (stereo not drawn), the survivor count was 0 of 6 under setting [3], 0 of 6 under setting [4] and 0 of 6 under setting [5].
As for `COc1cc2c(cc1OC)-c1c(cnn1C1OC(COC(C)=O)C(OC(C)=O)C(OC(C)=O)C1OC(C)=O)CC2` (stereo not drawn), the survivor count (T/C endpoint: mean survival time, dose: 200.0 mg/kg/injection, schedule: Q01DX005 (ip), vehicle: other) is on record as 6 of 6.
Consider `Cc1cc(C)c(NC(=O)CC#N)cc1C`, for which the T/C under setting [3] was 86 (2×) and 92 % of control. The survivor count by setting is: under setting [3], 3 of 3; under setting [4], 3 of 3 and 6 of 6; under setting [5], 3 of 3.
With `C1=CC2CC1CC2[P+](c1ccccc1)(c1ccccc1)c1ccccc1` (stereo not drawn), the survivor count by setting is: under setting [6], 1 of 3; under setting [7], 0 of 3; under setting [8], 0 of 3.
In the case of `COc1ccc(-c2c(COC(C)=O)c(COC(C)=O)c3n2CCC3)cc1`, the survivor count is, setting by setting: (T/C endpoint: mean survival time, dose: 50.0 mg/kg/injection, schedule: Q01DX009 (ip), vehicle: Klucel (hydroxypropylcellulose) (HPC)) 6 of 6; (T/C endpoint: mean survival time, dose: 100.0 mg/kg/injection, schedule: Q01DX009 (ip), vehicle: Klucel (hydroxypropylcellulose) (HPC)) 4 of 6; (T/C endpoint: mean survival time, dose: 200.0 mg/kg/injection, schedule: Q01DX009 (ip), vehicle: Klucel (hydroxypropylcellulose) (HPC)) 2 of 6; (T/C endpoint: mean survival time, dose: 400.0 mg/kg/injection, schedule: Q01DX009 (ip), vehicle: Klucel (hydroxypropylcellulose) (HPC)) 0 of 6.
`O=S(=O)(O)SNCCN1CCOCC1`: the survivor count runs as follows: under setting [3], 0 of 6; under setting [4], 1 of 6; under setting [5], 3 of 6.
Regarding `C=CCc1cc(O)c(CC=C)cc1O`, the survivor count under setting [9] was 0 of 3.
In the case of `CN(C)/N=N/c1[nH]ncc1C(N)=O`, the T/C (T/C endpoint: mean survival time, dose: 300.0 mg/kg/injection, schedule: Q01DX001 (oral), vehicle: saline) was 142 % of control and the T/C (T/C endpoint: mean survival time, dose: 600.0 mg/kg/injection, schedule: Q01DX001 (oral), vehicle: saline) is 139 % of control [5 of 6 alive].
Regarding `O=P(O)(c1ccccc1CBr)c1ccccc1CBr`, the survivor count is reported as 0 of 6 under setting [10] and 0 of 6 under setting [11].
With `CCOc1cc[n+](C)c2ccc(C)cc12`, the survivor count is on record as 0 of 3 under setting [2], 0 of 3 under setting [12] and 0 of 3 under setting [9].
Regarding `COc1ccc(OC)c(C2N(Cc3ccc(N(C)C)cc3)CCCN2Cc2ccc(N(C)C)cc2)c1`, under setting [5], the survivor count is 5 of 6.
On to `O=C(SCN1CCCCC1)c1ccccc1`, for which the survivor count is 4 of 6 under setting [13] and 0 of 6 under setting [5].
As to `C1SCc2c1c1c(c3c2CSC3)CSC1`, the survivor count under setting [7] is 6 of 6.
Take `c1cc(C2CCOCC2)ccn1`: the survivor count runs as follows: under setting [14], 6 of 6; under setting [13], 0 of 6; under setting [15], 0 of 6.
`C=C[CH2][Sn]([CH2]C=C)([c]1ccccc1)[c]1ccccc1`: the survivor count runs as follows: under setting [16], 3 of 6; under setting [17], 0 of 6; (T/C endpoint: median survival time, dose: 50.0 mg/kg/injection, schedule: Q04DX002 (ip), vehicle: saline with Tween-80) 0 of 3; (T/C endpoint: median survival time, dose: 100.0 mg/kg/injection, schedule: Q04DX002 (ip), vehicle: saline with Tween-80) 0 of 3.
On to `CCCCNCC(=O)O[C@]1(CC)C(=O)OCc2c1cc1n(c2=O)Cc2cc3ccccc3nc2-1`, for which, where the note is “T/C endpoint: median survival time, dose: 30.0 mg/kg/injection, schedule: Q04DX002 (ip), vehicle: saline”, the T/C was 130 % of control. Also, the survivor count was 0 of 6 (T/C endpoint: median survival time, dose: 60.0 mg/kg/injection, schedule: Q04HX004 (iv), vehicle: dextrose) and 6 of 6 (T/C endpoint: median survival time, dose: 120.0 mg/kg/injection, schedule: Q04DX002 (ip), vehicle: saline).
As for `Cc1ccc(CNc2ccccc2)cc1`, the survivor count (T/C endpoint: mean survival time, dose: 100.0 mg/kg/injection, schedule: Q04DX003 (ip), vehicle: other) is 6 of 6.
Consider `O=C/C(Cl)=C(/Cl)C(=O)O`, for which the survivor count is, setting by setting: (T/C endpoint: mean survival time, dose: 40.0 mg/kg/injection, schedule: Q01DX009 (ip), vehicle: saline with Tween-80) 2 of 6; under setting [2], 0 of 3; under setting [12], 0 of 3; under setting [9], 0 of 3.
In the case of `CCCCCCC#CC(O)CC` (stereo not drawn), the survivor count under setting [13] is 1 of 3.
Take `CCN(CC)C(=O)N1C2CCC1CN(C)C2`: the survivor count reads like this: under setting [1], 2 of 6; (T/C endpoint: mean survival time, dose: 200.0 mg/kg/injection, schedule: Q04DX003 (ip), vehicle: saline) 0 of 6; under setting [15], 0 of 6.
Regarding `COc1cc(OC)c(NC(=O)Oc2ccc(C(C)(C)C)cc2Br)cc1Cl`, the survivor count (T/C endpoint: mean survival time, dose: 50.0 mg/kg/injection, schedule: Q01DX009 (ip), vehicle: saline with Tween-80) was 3 of 3.
For the molecule `CC(O)CNc1nc(N)[nH]c(=O)c1[N+](=O)[O-]` (stereo not drawn), the survivor count under setting [8] is 3 of 6.
As for `CC(=O)Oc1ccc2ncccc2c1Cc1c(OC(C)=O)ccc2ncccc12`, the survivor count under setting [10] is on record as 6 of 6.
Turning to `O=C(O)c1cccc(CBr)c1CBr`, the survivor count under setting [6] is on record as 0 of 6, the survivor count under setting [7] is given as 0 of 6 and the survivor count under setting [8] is listed as 0 of 6.
Consider `CCOC(=O)c1ccc(NC(=O)CCOc2ccccc2)cc1`, for which the survivor count under setting [2] is 3 of 3, the survivor count under setting [9] is recorded as 6 of 6 and the survivor count under setting [5] was 6 of 6.
For `Cc1cc(Cl)nc(N)n1`, where the note is “T/C endpoint: mean survival time, dose: 400.0 mg/kg/injection, schedule: Q04DX002 (ip), vehicle: Klucel (hydroxypropylcellulose) (HPC)”, the survivor count was 2 of 3.
Consider `COc1cc2ccc(-c3cc(C(=O)O)c4ccccc4n3)cc2cc1OC`, for which the survivor count under setting [11] is given as 3 of 6.
On to `CSc1ccccc1C[P+](c1ccccc1)(c1ccccc1)c1ccccc1`, for which the survivor count was 6 of 6 (T/C endpoint: mean survival time, dose: 6.25 mg/kg/injection, schedule: Q01DX009 (ip), vehicle: saline with Tween-80); 5 of 6 under setting [16]; 2 of 6 under setting [17]; 0 of 6 under setting [14]; 0 of 6 under setting [13]; 0 of 6 (T/C endpoint: mean survival time, dose: 400.0 mg/kg/injection, schedule: Q01DX009 (ip), vehicle: saline with Tween-80).
